Measurements reported in publication PMC7426924.
These are yes or no findings as the source states them, for the method shown.

B1: Flavobacterium johnsoniae chitobiase (FjGH20) (enzyme, UniProt A5FB64 17-688)
chain: QMQKEQLNLMPWPQNVVVNDGNFTLTKNFKVNISGNPDSRIFGGVTRFLRRLDGRTGIFFEQGFITKLNEFPNAELQINCTKNGKIGLYEDESYSLDVKANKITINATSDLGALHGLETLLQLLQNDSKKFYFPVSQISDFPRFTWRGLMLDASRHFQPVDVVKRNLDALAAMKMNVFHWHLVDDQGWRIETKKHPKLIELASDGLYYTQEEIRNIVKYADERGILIVPEIDVPGHGSAILTAYPEIGSKVITLTGGTSEKNIQGTAISTYRIERNAGIFSPTLDPSNPKTYKILSELFDEVCPLFPGAYFHIGGDENEGKDWDANPKIQEFKKKHNLKTNHELQTYFTMQLAPMLKKHGKQLMGWEEILTKDLSKEAIVHSWRGPNEGMVAGQSLVDAVKKGYKTVLSNGFYIDLMYPVASHYLNDPMPKGADLSAEEKARILGGEATMWTELATPETFDSRVWPRTAAIAERLWSAENITDVANMRKRLESVSFRLEELGLTHIKNKAVILRNIANNQNIKSVNEFTNVCEPLKGYTRNKGGTEYQMYSPFTLFADACTPDAKDSLAFDEAVSQYLANKSADNKAKVAAFFNKWIAVNKGLVELSANAPLVQPILPLSKKLSDASQELLLVLDNKSTLKTADLKTLIEQCNTKDHADVELSVYESLKKLI
B2: Flavobacterium johnsoniae chitinase B (FjChiB) (enzyme, UniProt A5FB54 24-340)
chain: TSEKENNPEEVKSKKARVVGYLSADSFDKITSIEFCKLTHLNIAFANPDKNGNLVFDGDIDAVTKYVRSVNSNIVISISLAGGVISTEQAANWSLLIDKPENRPAFMQNISKFVTDHNLDGVDVDLEWDAVTSGYSGFVVELRKELTDRKKLLTAALPNNTRFVNINSEALNAFDFINIMAYDSTGPWSPNKIEQHSSFEFAKEGVEFWKKQNVPSEKLTLGVPFYGYNFTYPEVTSSTFGEIIQAGTQFADQDEIGKIYYNGRPTILKKVEYASQNTGGIMIWELAQDSFGEYSLLEVIHKKYTDLKYKTSGMCGN

Legend:
[1] = target: Flavobacterium johnsoniae chitobiase (FjGH20) (Flavobacterium johnsoniae) (UniProt A5FB64); experiment: crystal structure; FjGH20 crystals from 14% PEGMME 5K, 0.1 M Na-malonate pH 7.5; 1.70 Å; two molecules in the asymmetric unit; interface analysed with PISA; both purified
[2] = target: Flavobacterium johnsoniae chitobiase (FjGH20) (Flavobacterium johnsoniae) (UniProt A5FB64); experiment: SEC; HiLoad Superdex 200 16/60, isocratic, 50 mM Tris pH 8.0 with 250 mM NaCl; molecular weights by standard curve (12-200 kDa markers); both purified
[3] = target: Flavobacterium johnsoniae chitinase B (FjChiB) (Flavobacterium johnsoniae) (UniProt A5FB54); experiment: crystal structure; FjChiB crystals from 0.15 M magnesium formate, 15% PEG3550; 1.63 Å; one molecule in the asymmetric unit; both purified

| Binder | binding [1] | binding [2] | binding [3] |
| --- | --- | --- | --- |
| B1 | no binding | no binding |  |
| B2 |  |  | no binding |
